Measurements: PMC4887895
These are yes or no findings as the source states them, for the method shown. In cells and extracts the contact can be indirect. Some results given as binding are weak or reduced against the parent protein; the word gives no strength. Where a sequence is shown, tags or fusion partners need not be part of it.

Amino acid sequences for entries named in this document (tags omitted).
UniProt Q9P0L2: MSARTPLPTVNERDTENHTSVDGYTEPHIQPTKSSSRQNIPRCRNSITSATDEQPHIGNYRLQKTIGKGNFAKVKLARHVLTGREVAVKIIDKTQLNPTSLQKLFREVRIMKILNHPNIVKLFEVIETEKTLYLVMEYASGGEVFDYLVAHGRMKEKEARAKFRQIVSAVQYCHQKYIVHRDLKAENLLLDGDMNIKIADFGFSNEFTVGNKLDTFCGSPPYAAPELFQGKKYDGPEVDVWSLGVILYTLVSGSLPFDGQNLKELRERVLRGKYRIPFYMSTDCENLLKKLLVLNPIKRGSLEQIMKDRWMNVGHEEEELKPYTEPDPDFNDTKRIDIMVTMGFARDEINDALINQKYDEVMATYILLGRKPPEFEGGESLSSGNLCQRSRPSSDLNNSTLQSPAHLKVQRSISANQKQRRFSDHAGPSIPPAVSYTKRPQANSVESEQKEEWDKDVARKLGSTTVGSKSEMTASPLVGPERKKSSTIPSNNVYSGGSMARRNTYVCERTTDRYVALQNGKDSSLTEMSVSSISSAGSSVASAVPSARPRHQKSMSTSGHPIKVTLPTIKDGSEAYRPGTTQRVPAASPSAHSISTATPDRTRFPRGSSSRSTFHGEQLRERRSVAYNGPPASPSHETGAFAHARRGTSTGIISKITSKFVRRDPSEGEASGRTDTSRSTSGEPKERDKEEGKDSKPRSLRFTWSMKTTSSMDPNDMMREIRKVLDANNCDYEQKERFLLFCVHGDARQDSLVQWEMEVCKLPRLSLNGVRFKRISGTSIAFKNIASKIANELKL
UniProt Q7KZI7: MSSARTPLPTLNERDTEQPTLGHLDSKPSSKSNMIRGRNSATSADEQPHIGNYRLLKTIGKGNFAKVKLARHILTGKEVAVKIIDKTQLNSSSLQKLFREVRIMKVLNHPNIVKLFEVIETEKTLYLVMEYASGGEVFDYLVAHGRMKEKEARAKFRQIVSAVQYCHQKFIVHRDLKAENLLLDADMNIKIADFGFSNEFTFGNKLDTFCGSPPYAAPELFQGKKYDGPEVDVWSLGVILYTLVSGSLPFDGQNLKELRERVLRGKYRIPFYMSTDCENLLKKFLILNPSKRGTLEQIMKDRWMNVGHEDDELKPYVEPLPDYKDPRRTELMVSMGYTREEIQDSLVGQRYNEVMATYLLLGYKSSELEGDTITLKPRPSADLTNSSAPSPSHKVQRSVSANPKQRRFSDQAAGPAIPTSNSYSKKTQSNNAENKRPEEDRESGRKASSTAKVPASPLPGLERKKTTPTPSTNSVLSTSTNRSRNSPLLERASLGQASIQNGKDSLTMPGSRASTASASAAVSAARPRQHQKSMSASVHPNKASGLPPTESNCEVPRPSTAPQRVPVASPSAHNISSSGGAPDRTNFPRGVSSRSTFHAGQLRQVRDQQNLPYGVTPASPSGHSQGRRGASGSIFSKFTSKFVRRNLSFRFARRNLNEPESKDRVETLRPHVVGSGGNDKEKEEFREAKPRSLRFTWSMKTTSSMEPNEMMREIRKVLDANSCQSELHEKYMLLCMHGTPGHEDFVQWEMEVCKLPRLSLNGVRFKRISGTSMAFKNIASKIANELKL
UniProt P27448: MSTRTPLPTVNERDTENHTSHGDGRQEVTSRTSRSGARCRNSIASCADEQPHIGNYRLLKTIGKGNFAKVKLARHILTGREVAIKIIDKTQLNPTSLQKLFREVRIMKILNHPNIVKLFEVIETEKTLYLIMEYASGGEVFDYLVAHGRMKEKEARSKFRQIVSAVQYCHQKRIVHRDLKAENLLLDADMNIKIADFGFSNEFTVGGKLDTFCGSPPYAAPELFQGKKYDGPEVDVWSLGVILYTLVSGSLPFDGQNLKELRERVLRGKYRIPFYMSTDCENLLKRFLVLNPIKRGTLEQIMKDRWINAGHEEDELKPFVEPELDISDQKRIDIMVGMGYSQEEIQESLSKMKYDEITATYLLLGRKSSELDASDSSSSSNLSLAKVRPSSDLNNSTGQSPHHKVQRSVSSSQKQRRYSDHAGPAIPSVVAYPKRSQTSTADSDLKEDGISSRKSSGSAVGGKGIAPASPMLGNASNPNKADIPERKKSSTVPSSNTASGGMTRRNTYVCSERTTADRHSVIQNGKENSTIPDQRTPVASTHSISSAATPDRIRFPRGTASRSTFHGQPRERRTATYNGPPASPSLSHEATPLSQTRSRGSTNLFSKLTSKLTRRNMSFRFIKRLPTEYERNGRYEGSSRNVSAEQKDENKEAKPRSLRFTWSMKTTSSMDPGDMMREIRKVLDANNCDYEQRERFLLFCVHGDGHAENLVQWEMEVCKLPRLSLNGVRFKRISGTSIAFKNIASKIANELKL

Tests used:
Assay in all cases: co-IP; V5-FEZ1 co-expressed with GFP-MARKs in HEK 293 cells; lysis in HNE buffer (150 mM NaCl, 1 mM EDTA, 1% Triton X-100, 50 mM Hepes, pH 7.2); precipitated with anti-GFP antibodies and protein G-Sepharose; immunoblot
[1] = molecular target: GFP-MARK1 (human) (UniProt Q9P0L2)
[2] = molecular target: GFP-MARK2 (human) (UniProt Q7KZI7)
[3] = molecular target: GFP-MARK3 (human) (UniProt P27448)

Measured: binding

B1: V5-tagged wild type FEZ1 (protein, UniProt Q99689 1-392)
chain: MEAPLVSLDEEFEDLRPSCSEDPEEKPQCFYGSSPHHLEDPSLSELENFSSEIISFKSMEDLVNEFDEKLNVCFRNYNAKTENLAPVKNQLQIQEEEETLQDEEVWDALTDNYIPSLSEDWRDPNIEALNGNCSDTEIHEKEEEEFNEKSENDSGINEEPLLTADQVIEEIEEMMQNSPDPEEEEEVLEEEDGGETSSQADSVLLQEMQALTQTFNNNWSYEGLRHMSGSELTELLDQVEGAIRDFSEELVQQLARRDELEFEKEVKNSFITVLIEVQNKQKEQRELMKKRRKEKGLSLQSSRIEKGNQMPLKRFSMEGISNILQSGIRQTFGSSGTDKQYLNTVIPYEKKASPPSVEDLQMLTNILFAMKEDNEKVPTLLTDYILKVLCPT
binds: all assays above

B2: V5-tagged FEZ1 (S58A) (protein, UniProt Q99689 1-392)
chain: MEAPLVSLDEEFEDLRPSCSEDPEEKPQCFYGSSPHHLEDPSLSELENFSSEIISFKAMEDLVNEFDEKLNVCFRNYNAKTENLAPVKNQLQIQEEEETLQDEEVWDALTDNYIPSLSEDWRDPNIEALNGNCSDTEIHEKEEEEFNEKSENDSGINEEPLLTADQVIEEIEEMMQNSPDPEEEEEVLEEEDGGETSSQADSVLLQEMQALTQTFNNNWSYEGLRHMSGSELTELLDQVEGAIRDFSEELVQQLARRDELEFEKEVKNSFITVLIEVQNKQKEQRELMKKRRKEKGLSLQSSRIEKGNQMPLKRFSMEGISNILQSGIRQTFGSSGTDKQYLNTVIPYEKKASPPSVEDLQMLTNILFAMKEDNEKVPTLLTDYILKVLCPT
binds: all assays above
